Assay results reported in paper PMC12302804.
No constants are given. Whether binding was seen depends on the method and setting. Binding seen in cells or lysates may run through a third protein. Some results given as binding are weak or reduced against the parent protein; the word gives no strength. For some assays here: Where a sequence is shown, tags or fusion partners need not be part of it. Blank lines part the entries; values can stand above or below the binder they belong to.

Key:
[1] = target: T1, Aspartate/Glutamate Carrier 1 (AGC1) (human (endogenous in HCT116)) (UniProt O75746); assay: co-IP; exogenous, reciprocal; MKRN1-OE HCT116 cells lysed in native lysis buffer; anti-FLAG M2 affinity gel, or 3 µg antibody with rProtein A/G MagBeads, 4 °C overnight; immunoblot
T1 sequence: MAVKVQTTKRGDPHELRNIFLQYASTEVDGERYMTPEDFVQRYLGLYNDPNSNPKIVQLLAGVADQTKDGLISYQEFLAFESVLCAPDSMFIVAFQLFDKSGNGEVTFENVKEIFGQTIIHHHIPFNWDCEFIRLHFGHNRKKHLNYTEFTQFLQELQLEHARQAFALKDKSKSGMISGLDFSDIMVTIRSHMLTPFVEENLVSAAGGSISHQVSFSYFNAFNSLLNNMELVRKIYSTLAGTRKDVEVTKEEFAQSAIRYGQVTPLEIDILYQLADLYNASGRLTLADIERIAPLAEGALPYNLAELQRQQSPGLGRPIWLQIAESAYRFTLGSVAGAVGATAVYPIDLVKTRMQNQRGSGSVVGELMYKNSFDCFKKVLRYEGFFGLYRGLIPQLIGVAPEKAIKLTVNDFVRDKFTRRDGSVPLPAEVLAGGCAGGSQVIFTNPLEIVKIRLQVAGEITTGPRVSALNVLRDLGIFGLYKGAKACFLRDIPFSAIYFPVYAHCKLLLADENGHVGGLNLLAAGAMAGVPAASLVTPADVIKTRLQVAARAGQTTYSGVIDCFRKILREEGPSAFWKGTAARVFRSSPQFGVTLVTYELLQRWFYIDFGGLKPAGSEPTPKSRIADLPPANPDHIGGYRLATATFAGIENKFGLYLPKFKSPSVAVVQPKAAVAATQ

[2] = target: T1, Aspartate/Glutamate Carrier 1 (AGC1) (human (endogenous in HCT116)); assay: co-IP; endogenous, reciprocal; anti-MKRN1 (Bethyl A300-990A-M) or anti-AGC1 (Proteintech 26804-1-AP) with rProtein A/G MagBeads; IgG as control; immunoblot

binding [1]: binds
B1: flag-tagged Makorin Ring Finger Protein 1 (MKRN1) (protein, UniProt Q9UHC7 1-482)
chain: MAEAATPGTTATTSGAGAAAATAAAASPTPIPTVTAPSLGAGGGGGGSDGSGGGWTKQVTCRYFMHGVCKEGDNCRYSHDLSDSPYSVVCKYFQRGYCIYGDRCRYEHSKPLKQEEATATELTTKSSLAASSSLSSIVGPLVEMNTGEAESRNSNFATVGAGSEDWVNAIEFVPGQPYCGRTAPSCTEAPLQGSVTKEESEKEQTAVETKKQLCPYAAVGECRYGENCVYLHGDSCDMCGLQVLHPMDAAQRSQHIKSCIEAHEKDMELSFAVQRSKDMVCGICMEVVYEKANPSERRFGILSNCNHTYCLKCIRKWRSAKQFESKIIKSCPECRITSNFVIPSEYWVEEKEEKQKLILKYKEAMSNKACRYFDEGRGSCPFGGNCFYKHAYPDGRREEPQRQKVGTSSRYRAQRRNHFWELIEERENSNPFDNDEEEVVTFELGEMLLMLLAAGGDDELTDSEDEWDLFHDELEDFYDLDL

binding [2]: binds
B2: Makorin Ring Finger Protein 1 (MKRN1), endogenous (protein, UniProt Q9UHC7 1-482)
chain: B1 chain
